According to the supplement of paper PMC10849652:
The list shows a part of the results.

Protein sequences, listed by entry. Tags and fused reporters are not part of them. Lines headed by an entry give the natural chain unless they say otherwise; changes in a name come on top.
UniProt Q9BW85: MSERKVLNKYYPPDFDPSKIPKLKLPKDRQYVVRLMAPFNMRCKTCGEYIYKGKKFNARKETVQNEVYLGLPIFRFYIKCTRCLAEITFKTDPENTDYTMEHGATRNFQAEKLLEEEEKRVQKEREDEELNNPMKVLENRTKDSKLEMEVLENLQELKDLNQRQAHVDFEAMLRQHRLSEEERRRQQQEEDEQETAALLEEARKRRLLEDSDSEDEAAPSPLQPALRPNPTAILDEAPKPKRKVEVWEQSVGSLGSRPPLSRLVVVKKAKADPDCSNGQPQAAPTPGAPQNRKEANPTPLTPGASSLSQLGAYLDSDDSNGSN
UniProt O76080: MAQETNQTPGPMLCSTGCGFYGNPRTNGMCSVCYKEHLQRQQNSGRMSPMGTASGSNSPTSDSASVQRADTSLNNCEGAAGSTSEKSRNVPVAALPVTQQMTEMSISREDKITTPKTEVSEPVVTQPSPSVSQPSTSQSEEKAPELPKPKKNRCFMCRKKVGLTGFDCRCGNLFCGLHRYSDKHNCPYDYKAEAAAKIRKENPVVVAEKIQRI
UniProt Q14202: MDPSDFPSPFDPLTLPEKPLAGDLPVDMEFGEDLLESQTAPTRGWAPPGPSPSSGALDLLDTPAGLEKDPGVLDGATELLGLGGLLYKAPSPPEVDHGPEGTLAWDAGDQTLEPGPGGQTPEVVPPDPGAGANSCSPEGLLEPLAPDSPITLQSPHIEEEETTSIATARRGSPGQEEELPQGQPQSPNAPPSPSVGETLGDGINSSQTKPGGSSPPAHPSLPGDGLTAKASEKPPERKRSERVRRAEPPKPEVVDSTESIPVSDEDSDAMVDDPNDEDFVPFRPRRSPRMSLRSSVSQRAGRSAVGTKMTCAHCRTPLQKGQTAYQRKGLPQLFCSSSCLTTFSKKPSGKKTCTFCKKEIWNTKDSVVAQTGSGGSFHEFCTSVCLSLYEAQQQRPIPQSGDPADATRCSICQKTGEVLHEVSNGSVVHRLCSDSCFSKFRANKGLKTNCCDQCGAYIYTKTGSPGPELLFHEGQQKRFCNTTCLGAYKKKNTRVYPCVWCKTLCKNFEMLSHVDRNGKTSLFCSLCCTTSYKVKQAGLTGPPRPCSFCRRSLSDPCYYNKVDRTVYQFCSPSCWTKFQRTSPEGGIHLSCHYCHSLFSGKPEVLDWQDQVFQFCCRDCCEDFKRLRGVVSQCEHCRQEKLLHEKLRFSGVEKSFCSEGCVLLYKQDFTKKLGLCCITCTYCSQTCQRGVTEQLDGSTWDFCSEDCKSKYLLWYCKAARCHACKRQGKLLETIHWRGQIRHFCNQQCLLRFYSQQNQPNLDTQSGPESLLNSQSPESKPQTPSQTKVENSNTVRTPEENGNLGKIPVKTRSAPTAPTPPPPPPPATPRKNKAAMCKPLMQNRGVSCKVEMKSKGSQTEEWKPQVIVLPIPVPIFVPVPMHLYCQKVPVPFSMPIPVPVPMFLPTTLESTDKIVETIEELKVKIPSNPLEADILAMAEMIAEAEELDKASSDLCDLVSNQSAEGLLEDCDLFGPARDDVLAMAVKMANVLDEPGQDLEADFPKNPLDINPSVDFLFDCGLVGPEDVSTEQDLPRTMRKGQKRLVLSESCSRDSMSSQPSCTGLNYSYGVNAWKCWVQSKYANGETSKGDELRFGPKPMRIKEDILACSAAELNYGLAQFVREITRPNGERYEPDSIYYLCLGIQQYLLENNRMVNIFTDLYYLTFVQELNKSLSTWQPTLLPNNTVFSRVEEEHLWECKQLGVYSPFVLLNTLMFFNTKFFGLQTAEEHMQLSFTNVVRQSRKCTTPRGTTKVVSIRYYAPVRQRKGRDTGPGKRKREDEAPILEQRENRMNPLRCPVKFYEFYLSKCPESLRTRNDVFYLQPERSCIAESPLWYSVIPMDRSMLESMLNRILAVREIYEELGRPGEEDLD
UniProt Q96NC0: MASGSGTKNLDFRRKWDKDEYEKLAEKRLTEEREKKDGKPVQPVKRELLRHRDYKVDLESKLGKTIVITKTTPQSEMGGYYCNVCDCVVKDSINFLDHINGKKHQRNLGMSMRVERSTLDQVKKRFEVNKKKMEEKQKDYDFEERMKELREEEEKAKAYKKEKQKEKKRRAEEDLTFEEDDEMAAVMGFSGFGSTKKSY
UniProt Q96JP5: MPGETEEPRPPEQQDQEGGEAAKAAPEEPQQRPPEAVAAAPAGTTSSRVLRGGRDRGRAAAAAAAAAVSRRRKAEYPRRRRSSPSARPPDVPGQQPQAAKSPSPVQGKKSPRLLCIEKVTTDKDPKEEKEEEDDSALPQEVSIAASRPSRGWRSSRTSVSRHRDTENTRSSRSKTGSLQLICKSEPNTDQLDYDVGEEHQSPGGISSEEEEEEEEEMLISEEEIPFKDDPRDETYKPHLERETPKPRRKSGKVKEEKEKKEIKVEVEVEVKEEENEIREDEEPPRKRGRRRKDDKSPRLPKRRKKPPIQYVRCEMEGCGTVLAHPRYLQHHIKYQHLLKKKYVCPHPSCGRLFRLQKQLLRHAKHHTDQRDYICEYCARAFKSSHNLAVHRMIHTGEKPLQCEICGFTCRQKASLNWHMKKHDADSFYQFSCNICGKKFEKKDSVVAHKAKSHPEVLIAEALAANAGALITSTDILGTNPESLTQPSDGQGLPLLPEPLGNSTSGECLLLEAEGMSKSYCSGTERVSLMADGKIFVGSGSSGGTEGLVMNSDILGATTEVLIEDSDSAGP
UniProt O95405: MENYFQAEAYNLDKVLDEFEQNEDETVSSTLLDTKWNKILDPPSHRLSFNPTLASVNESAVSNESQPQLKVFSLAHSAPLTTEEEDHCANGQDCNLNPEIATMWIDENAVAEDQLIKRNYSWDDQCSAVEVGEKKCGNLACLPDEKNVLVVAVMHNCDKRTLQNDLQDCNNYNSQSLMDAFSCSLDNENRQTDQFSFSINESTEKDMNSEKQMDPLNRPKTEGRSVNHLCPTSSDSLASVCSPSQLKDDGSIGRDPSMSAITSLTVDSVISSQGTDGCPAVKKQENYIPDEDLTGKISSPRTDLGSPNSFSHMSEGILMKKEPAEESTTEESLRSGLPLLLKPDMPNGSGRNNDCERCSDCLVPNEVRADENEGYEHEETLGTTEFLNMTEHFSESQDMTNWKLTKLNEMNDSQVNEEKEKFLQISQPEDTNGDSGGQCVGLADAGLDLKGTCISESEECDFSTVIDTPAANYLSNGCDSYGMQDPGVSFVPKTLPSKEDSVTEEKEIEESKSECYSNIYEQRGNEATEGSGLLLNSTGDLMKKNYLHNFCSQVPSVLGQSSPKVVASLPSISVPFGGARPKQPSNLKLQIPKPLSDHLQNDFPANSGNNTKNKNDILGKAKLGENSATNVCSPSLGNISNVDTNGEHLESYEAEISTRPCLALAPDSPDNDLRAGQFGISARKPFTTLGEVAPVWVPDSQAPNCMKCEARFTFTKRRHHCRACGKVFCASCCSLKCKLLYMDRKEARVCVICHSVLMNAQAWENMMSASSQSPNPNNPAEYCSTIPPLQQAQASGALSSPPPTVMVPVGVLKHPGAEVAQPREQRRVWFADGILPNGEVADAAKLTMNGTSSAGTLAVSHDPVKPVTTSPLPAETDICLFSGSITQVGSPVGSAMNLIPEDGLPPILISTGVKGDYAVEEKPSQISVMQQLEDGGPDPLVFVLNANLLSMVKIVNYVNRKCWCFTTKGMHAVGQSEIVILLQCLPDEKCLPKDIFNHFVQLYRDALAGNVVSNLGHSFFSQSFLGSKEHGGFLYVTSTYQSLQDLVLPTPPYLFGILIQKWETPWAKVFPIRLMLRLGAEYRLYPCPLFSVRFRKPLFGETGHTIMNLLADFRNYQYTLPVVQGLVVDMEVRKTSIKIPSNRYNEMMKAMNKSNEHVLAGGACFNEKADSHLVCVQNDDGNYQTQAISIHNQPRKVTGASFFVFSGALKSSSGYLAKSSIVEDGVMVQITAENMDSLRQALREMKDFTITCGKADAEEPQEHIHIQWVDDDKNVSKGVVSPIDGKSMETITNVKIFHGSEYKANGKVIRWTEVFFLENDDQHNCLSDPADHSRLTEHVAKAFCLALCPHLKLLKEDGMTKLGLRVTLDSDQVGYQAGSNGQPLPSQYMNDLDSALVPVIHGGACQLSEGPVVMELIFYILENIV
UniProt P52747: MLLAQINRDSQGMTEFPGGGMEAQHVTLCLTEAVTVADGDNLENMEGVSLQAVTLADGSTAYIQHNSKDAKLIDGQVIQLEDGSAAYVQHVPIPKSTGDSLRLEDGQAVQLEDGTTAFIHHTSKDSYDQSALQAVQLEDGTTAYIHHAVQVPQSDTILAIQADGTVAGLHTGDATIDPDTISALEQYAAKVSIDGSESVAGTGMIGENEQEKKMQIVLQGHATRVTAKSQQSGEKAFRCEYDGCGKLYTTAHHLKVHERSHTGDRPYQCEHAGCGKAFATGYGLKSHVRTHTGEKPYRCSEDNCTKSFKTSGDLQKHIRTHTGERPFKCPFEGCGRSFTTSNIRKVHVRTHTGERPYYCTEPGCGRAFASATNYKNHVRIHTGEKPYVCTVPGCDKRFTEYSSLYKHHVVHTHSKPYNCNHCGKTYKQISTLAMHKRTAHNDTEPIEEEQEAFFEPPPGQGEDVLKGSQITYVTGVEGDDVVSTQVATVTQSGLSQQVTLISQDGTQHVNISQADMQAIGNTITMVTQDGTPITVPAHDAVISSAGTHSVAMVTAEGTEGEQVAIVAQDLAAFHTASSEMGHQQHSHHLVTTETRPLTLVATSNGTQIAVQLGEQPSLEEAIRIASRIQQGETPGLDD
UniProt P67809, whole entry, looked up: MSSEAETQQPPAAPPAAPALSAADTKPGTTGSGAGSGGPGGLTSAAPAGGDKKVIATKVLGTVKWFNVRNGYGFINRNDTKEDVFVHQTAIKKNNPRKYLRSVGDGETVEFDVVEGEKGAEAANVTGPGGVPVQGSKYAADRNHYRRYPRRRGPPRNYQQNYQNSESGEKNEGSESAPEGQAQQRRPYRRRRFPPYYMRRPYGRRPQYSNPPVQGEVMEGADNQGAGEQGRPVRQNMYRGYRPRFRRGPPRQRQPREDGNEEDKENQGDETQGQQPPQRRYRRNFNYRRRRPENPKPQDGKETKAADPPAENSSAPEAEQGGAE
UniProt Q9NRH1: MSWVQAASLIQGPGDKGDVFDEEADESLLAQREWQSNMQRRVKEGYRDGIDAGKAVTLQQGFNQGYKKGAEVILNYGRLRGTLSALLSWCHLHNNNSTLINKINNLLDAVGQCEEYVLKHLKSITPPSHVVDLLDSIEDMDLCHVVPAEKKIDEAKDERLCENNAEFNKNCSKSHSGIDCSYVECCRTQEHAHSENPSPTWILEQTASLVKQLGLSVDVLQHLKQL
UniProt Q86VM9: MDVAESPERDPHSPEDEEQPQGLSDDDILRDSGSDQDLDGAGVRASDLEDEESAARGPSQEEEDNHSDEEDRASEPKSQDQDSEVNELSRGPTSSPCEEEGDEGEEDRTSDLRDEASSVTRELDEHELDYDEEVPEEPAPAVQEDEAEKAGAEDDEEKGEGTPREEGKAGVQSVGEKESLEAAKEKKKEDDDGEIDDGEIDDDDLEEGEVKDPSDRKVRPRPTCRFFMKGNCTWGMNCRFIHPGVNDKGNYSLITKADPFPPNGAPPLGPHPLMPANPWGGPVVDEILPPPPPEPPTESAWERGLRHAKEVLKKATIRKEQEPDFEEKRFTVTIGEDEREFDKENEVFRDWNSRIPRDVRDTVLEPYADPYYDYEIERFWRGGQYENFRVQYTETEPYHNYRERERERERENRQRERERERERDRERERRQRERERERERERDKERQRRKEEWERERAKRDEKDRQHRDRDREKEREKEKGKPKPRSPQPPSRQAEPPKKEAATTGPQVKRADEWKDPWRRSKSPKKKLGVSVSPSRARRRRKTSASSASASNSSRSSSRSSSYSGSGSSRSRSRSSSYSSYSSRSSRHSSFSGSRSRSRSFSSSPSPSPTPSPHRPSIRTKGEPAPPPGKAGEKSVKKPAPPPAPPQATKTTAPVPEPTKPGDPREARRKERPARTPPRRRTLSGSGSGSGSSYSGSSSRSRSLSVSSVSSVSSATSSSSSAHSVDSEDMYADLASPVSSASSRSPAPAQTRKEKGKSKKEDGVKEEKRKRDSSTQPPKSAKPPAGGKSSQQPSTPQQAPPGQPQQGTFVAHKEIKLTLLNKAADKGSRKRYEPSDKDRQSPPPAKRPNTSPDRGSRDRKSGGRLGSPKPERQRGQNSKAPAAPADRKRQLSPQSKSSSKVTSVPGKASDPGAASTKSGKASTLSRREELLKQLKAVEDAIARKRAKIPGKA
UniProt P63104: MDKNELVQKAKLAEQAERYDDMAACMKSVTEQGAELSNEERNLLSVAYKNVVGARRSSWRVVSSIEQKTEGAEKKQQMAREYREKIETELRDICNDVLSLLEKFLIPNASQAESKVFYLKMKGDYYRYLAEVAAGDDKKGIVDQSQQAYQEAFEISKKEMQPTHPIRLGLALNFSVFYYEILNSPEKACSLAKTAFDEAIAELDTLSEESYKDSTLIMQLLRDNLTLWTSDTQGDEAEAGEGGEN

compound: CC1=C(C=C(C=C1)NC(=O)C2=CC(=CC=C2)C(C)(C)C#N)NC3=CC4=C(C=C3)N=CN(C4=O)C; assay: log2 fold change, soluble protein after heating vs DMSO (PISA); higher = thermal stabilisation; K562 cells, 10 uM, 30 min; active = over 0.2 and 3.5 SD of the protein, either way, in both replicates (recomputed)
Procedure, shortened: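 Soluble protein was quantified by TMTpro 16plex LC-MS/MS after channel sums were equalised. It was obtained as the supernatant after 21,000xg for 90 min from pooled aliquots of K562 cells (2×10^6 cells/mL, 10 μM compound, 30 min) heated for 3 min across 48°C-58°C and extracted in PBS with 0.5% NP-40 at 4°C. Thermal stability values are relative to control samples and come from duplicates. They are given as log2 fold changes.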

Target | log2 fold change
YJU2 (UniProt Q9BW85) | inactive: 0.03
ZFAND5 (UniProt O76080) | inactive: -0.064
ZNF24 (UniProt P17028) | inactive: -0.034
ZFPL1 (UniProt O95159) | inactive: 0.061
ZMYM3 (UniProt Q14202) | inactive: -0.092
XRCC5 (UniProt P13010) | inactive: 0.073
ZMAT2 (UniProt Q96NC0) | inactive: 0.209
YARS (UniProt P54577) | inactive: -0.027
YIPF4 (UniProt Q9BSR8) | inactive: 0.013
ZFP91 (UniProt Q96JP5) | inactive: 0.017
XRCC6 (UniProt P12956) | inactive: 0.046
YY1 (UniProt P25490) | inactive: 0.035
ZFYVE9 (UniProt O95405) | inactive: 0.131
XPNPEP3 (UniProt Q9NQH7) | inactive: -0.045
ZFAND2B (UniProt Q8WV99) | inactive: -0.053
ZDHHC17 (UniProt Q8IUH5) | inactive: 0.076
YWHAB (UniProt P31946) | inactive: 0.016
XPO1 (UniProt O14980) | inactive: 0.072
ZNF143 (UniProt P52747) | inactive: -0.023
YBX1 (UniProt P67809) | inactive: 0.041

Target | log2 fold change
ZER1 (UniProt Q7Z7L7) | inactive: -0.041
ZDHHC14 (UniProt Q8IZN3) | inactive: -0.036
YWHAQ (UniProt P27348) | inactive: 0.184
YAE1 (UniProt Q9NRH1) | inactive: 0.056
ZC3HC1 (UniProt Q86WB0) | inactive: 0.011
ZC3H18 (UniProt Q86VM9) | inactive: 0
YOD1 (UniProt Q5VVQ6) | inactive: 0.067
YIPF5 isoform 3 (UniProt Q969M3) | inactive: 0.042
YIPF6 (UniProt Q96EC8) | inactive: -0.131
XPO5 (UniProt Q9HAV4) | inactive: 0.031
YWHAZ (UniProt P63104) | inactive: 0.025
XPO6 (UniProt Q96QU8) | inactive: 0.008
YLPM1 (UniProt P49750) | inactive: -0.095
ZDHHC5 (UniProt Q9C0B5) | inactive: 0.048
XPNPEP1 isoform 3 (UniProt Q9NQW7) | inactive: 0.014
ZNF217 (UniProt O75362) | inactive: 0.075
ZFAND6 (UniProt Q6FIF0) | inactive: 0.069
ZC3H8 (UniProt Q8N5P1) | inactive: -0.021
YBX3 isoform 2 (UniProt P16989) | inactive: 0.046

Part of the list above, set out differently.

| Target | log2 fold change |
| --- | --- |
| ZDHHC14 (UniProt Q8IZN3) | inactive: -0.036 |
| YWHAQ (UniProt P27348) | inactive: 0.184 |
| YAE1 (UniProt Q9NRH1) | inactive: 0.056 |
| ZC3HC1 (UniProt Q86WB0) | inactive: 0.011 |
| ZC3H18 (UniProt Q86VM9) | inactive: 0 |
| YOD1 (UniProt Q5VVQ6) | inactive: 0.067 |
| YIPF5 isoform 3 (UniProt Q969M3) | inactive: 0.042 |
| YIPF6 (UniProt Q96EC8) | inactive: -0.131 |
